# Some of the results follow.
# Sequences of proteins named here, by UniProt entry; tags and fusion partners are left off. A change or cut given only in a name is not applied to a line headed by its entry.
# UniProt O00507: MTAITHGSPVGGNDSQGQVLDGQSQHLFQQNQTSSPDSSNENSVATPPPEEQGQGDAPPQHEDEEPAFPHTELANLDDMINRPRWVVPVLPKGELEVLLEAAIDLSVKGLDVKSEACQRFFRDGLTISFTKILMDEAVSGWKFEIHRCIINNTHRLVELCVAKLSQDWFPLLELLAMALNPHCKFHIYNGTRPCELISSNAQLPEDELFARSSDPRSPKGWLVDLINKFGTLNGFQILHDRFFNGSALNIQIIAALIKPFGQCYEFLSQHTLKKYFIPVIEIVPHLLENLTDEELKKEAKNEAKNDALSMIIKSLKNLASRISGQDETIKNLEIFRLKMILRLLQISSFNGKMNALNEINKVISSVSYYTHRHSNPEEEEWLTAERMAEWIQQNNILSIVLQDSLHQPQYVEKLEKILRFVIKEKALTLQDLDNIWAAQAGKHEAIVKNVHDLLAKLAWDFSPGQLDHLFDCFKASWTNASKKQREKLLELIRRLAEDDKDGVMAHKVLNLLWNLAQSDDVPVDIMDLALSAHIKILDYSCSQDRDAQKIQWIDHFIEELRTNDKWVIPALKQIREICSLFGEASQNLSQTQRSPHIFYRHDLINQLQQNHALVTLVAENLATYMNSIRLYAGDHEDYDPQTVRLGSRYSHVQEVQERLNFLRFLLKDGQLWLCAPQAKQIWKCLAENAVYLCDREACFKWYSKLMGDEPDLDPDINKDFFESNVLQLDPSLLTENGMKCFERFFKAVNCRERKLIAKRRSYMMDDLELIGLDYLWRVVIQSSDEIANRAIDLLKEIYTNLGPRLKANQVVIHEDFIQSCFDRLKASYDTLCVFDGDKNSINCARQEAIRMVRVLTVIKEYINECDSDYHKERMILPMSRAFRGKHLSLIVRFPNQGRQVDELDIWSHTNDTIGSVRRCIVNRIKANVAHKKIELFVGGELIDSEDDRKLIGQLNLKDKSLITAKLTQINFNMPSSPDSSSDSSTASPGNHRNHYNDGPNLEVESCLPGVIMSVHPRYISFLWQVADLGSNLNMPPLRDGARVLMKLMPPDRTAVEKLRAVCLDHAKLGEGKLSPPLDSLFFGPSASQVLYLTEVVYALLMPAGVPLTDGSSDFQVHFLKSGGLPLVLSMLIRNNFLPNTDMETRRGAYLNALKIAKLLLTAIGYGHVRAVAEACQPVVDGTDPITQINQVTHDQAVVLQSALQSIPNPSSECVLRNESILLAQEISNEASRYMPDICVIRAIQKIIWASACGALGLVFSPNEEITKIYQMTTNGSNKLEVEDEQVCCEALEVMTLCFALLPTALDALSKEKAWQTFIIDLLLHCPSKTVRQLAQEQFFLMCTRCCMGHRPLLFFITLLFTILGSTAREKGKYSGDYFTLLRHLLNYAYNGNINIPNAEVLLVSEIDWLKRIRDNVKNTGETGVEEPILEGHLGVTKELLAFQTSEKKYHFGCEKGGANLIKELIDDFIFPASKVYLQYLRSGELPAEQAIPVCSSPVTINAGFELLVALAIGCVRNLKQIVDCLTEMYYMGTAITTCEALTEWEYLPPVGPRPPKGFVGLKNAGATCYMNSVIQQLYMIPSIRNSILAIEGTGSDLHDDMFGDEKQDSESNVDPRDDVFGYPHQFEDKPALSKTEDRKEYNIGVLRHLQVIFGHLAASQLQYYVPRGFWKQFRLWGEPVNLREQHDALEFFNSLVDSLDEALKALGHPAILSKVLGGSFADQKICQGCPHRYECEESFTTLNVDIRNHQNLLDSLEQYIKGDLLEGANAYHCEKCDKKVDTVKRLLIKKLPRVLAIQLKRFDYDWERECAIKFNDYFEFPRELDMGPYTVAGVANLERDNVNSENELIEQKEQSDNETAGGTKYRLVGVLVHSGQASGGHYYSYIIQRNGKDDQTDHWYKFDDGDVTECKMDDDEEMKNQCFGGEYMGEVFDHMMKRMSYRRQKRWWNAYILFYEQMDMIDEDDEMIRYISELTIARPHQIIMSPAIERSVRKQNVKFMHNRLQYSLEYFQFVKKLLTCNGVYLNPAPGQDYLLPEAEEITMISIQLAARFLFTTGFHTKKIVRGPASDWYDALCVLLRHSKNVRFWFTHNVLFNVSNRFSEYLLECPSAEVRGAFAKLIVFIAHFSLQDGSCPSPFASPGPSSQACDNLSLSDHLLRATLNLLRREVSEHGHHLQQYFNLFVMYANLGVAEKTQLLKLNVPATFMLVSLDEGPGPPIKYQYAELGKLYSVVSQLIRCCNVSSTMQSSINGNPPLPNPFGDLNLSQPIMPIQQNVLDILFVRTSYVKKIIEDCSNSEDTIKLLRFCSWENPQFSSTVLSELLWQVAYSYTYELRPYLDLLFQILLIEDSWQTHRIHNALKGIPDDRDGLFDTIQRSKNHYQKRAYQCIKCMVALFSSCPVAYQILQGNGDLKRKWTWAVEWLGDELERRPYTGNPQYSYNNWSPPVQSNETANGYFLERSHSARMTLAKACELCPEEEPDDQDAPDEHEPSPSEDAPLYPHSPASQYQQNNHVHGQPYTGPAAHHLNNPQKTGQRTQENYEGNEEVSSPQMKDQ
# UniProt Q9HCJ6: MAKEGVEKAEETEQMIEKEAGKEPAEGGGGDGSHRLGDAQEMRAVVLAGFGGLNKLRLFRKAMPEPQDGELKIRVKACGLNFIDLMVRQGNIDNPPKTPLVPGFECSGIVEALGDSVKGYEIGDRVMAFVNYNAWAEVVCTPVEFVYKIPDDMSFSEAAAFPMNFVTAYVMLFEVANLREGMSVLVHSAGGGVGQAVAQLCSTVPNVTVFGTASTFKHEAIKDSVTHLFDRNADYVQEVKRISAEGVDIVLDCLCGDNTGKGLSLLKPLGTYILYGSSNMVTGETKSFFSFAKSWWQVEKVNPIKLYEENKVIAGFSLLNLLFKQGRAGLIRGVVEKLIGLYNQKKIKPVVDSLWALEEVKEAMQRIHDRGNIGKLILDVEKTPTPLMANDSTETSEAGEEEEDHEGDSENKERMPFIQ
# UniProt Q9UN37: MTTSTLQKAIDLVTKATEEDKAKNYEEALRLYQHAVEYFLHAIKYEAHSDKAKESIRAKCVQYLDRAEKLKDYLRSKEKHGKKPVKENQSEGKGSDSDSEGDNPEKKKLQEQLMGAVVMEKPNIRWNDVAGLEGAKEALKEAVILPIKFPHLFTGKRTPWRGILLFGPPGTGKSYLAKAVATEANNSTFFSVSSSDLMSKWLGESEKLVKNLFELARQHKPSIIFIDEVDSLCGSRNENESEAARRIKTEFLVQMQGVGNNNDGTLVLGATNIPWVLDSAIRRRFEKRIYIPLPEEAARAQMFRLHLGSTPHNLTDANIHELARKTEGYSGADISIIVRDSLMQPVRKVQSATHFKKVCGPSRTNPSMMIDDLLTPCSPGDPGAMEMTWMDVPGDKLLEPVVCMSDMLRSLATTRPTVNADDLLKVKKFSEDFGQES
# UniProt Q9NRW7: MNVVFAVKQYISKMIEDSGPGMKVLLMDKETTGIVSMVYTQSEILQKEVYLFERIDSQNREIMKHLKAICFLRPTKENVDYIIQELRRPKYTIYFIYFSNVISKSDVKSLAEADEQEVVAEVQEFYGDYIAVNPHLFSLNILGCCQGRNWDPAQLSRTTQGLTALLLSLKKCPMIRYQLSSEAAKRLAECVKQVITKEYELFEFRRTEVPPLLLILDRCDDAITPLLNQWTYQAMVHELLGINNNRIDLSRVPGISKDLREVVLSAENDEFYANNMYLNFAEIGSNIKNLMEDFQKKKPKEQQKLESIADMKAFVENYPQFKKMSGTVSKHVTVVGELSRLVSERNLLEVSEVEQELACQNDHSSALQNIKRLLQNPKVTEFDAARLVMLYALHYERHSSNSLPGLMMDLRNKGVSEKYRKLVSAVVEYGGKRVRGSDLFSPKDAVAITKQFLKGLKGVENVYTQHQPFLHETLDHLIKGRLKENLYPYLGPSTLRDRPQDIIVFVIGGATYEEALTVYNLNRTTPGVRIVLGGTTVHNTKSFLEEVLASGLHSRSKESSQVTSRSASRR
# UniProt Q8TED0: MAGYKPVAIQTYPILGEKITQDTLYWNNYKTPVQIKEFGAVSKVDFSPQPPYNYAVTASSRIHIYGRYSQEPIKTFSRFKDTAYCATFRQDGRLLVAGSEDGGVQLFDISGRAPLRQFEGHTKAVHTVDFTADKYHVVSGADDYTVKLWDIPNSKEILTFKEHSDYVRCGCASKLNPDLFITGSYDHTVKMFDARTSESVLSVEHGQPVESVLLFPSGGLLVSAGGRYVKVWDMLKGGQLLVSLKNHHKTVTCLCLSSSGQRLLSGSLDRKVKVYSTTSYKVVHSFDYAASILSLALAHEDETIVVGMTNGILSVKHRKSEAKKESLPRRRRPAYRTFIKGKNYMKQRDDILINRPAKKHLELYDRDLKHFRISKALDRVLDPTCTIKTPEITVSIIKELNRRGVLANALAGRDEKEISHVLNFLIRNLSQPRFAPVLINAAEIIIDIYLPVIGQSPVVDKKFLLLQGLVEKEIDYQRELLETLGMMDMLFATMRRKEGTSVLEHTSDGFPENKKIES
# UniProt A3KMH1: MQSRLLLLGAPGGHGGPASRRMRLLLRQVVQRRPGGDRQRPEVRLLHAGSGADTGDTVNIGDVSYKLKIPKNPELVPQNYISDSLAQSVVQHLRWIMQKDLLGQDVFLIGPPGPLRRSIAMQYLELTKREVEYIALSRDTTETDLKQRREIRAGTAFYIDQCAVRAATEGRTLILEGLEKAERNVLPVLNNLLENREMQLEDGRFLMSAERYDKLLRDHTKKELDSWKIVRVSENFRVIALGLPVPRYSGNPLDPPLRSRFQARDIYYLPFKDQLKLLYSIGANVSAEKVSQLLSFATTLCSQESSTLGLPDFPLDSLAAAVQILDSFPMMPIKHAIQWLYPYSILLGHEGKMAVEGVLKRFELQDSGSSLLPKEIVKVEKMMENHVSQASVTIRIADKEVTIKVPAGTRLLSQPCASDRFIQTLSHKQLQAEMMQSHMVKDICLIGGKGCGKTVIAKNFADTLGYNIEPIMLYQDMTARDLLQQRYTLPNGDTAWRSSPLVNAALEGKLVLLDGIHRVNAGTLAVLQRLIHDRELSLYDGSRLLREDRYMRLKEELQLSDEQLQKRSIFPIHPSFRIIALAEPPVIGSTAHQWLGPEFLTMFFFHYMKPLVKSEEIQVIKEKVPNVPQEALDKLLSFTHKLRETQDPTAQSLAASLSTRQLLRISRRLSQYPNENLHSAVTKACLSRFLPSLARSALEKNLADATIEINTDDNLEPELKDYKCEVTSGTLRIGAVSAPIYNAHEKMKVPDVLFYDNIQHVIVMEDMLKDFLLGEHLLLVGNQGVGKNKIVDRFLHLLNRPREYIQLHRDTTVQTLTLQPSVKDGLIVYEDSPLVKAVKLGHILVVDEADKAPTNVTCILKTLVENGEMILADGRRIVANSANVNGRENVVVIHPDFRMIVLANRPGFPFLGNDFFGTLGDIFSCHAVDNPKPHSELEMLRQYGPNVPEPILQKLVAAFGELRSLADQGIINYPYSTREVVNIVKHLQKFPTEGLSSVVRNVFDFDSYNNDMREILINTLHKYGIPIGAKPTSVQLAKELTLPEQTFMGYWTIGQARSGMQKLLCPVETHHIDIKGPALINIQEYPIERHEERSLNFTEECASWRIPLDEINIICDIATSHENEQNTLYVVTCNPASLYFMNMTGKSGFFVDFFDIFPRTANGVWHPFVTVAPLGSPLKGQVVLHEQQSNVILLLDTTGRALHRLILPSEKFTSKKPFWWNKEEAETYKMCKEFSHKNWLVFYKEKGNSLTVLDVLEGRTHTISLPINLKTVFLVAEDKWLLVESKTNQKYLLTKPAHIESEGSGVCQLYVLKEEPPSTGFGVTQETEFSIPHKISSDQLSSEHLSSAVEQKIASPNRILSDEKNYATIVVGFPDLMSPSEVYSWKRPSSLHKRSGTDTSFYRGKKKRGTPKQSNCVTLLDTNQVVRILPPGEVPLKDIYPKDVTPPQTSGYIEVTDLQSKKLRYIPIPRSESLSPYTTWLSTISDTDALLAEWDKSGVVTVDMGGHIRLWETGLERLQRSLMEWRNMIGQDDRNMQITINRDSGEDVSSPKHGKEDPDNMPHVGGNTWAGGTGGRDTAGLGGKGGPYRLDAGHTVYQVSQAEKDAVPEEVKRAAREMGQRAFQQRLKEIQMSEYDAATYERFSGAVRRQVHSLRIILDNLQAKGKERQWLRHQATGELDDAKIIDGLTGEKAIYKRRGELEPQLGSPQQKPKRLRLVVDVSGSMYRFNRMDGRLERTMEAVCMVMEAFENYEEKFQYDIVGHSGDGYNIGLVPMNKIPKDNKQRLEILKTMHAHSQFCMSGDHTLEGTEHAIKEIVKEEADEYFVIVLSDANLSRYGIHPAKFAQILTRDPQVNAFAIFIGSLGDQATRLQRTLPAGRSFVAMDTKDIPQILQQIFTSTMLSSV
# Compound: Cc1cc(ccc1-c1ccccc1)C(=O)N1CCCN(CC1)C(=O)CCl [compound 10]
# Assay: probe-labelled cysteine peptide fold change vs DMSO (competition) (log2 fold change); higher = less target engagement (more negative = stronger competition)
# Conditions: THP-1, incubation time: 4 h
# 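Also: competitive profiling in live THP-1 cells: cysteine peptides tagged with an iodoacetamide desthiobiotin (IA-DTB) probe, intensity after compound treatment relative to DMSO-treated cells.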
Target,probe-labelled cysteine peptide fold change (10 µM),probe-labelled cysteine peptide fold change (50 µM)
USP9Y_O00507_1238_YMPDICVIR (UniProt O00507),-0.135,-0.581
VAT1L_Q9HCJ6_253+255_ISAEGVDIVLDCLCGDNTGK (UniProt Q9HCJ6),0.388,-0.997
VPS51_Q9UID3_226_AIQDDCQVITAR (UniProt Q9UID3),-0.0982,-0.205
VPS11_Q9H270_709_QVISVCER (UniProt Q9H270),0.147,-0.00341
VAC14_Q08AM6_101_ELIEPVLTCFNDADSR (UniProt Q08AM6),-0.424,-0.0886
VPS13C_Q709C8_2289_GIEHSLIEENCGVVVESIQVTLECGLGHR (UniProt Q709C8),-0.105,-0.0661
VPS4A_Q9UN37_233_PSIIFIDEVDSLCGSR (UniProt Q9UN37),0.251,-0.276
VPS45_Q9NRW7_359_NLLEVSEVEQELACQNDHSSALQNIK (UniProt Q9NRW7),-0.15,0.0098
VPS18_Q9P253_947_ADLDELVAAECVYCGELMIR (UniProt Q9P253),-0.147,0.437
UTP15_Q8TED0_385_VLDPTCTIK (UniProt Q8TED0),0.0663,-0.0897
VWA8_A3KMH1_858_APTNVTCILK (UniProt A3KMH1),0.00789,0.186
VCL_P18206_1018_ALIQCAK (UniProt P18206),0.202,0.118
VPS41_P49754_638_DSTHCPLEK (UniProt P49754),-0.172,-0.152
VLDLR_P98155_127_IHEISCGAHSTQCIPVSWR (UniProt P98155),-0.0912,-0.0243

# Single entries from the entries so far.
# Entry for UTP15_Q8TED0_385_VLDPTCTIK (UniProt Q8TED0) under probe-labelled cysteine peptide fold change (50 µM): -0.0897
# Entry for VLDLR_P98155_127_IHEISCGAHSTQCIPVSWR (UniProt P98155) under probe-labelled cysteine peptide fold change (50 µM): -0.0243
